Data: the supplement of paper PMC10060354, “Discovery of a small molecule ligand of FRS2 that inhibits invasion and tumor growth” (Cellular Oncology, 2022)
Repeats are few or missing, and single values can be far off.

Chains of the proteins cited; added tags and fusions are not shown. Lines headed by an entry give the natural chain unless they say otherwise; changes in a name come on top.
UniProt O00560: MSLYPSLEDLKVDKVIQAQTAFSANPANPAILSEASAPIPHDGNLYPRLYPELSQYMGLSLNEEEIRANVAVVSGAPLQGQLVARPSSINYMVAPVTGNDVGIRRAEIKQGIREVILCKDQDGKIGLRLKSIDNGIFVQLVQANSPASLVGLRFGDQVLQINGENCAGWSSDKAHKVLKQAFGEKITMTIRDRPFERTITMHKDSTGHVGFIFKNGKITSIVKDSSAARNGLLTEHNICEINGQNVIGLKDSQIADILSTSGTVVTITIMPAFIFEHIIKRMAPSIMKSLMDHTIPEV
UniProt O75695: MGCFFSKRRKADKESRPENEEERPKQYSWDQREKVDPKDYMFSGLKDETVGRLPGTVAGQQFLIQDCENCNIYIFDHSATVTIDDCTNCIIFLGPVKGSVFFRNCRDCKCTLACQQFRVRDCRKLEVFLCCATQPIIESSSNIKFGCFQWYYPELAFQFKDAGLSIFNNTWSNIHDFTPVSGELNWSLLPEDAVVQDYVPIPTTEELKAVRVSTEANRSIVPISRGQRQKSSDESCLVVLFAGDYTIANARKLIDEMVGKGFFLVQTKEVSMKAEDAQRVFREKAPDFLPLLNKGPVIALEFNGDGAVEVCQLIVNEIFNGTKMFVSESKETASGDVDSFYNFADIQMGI
UniProt O60934: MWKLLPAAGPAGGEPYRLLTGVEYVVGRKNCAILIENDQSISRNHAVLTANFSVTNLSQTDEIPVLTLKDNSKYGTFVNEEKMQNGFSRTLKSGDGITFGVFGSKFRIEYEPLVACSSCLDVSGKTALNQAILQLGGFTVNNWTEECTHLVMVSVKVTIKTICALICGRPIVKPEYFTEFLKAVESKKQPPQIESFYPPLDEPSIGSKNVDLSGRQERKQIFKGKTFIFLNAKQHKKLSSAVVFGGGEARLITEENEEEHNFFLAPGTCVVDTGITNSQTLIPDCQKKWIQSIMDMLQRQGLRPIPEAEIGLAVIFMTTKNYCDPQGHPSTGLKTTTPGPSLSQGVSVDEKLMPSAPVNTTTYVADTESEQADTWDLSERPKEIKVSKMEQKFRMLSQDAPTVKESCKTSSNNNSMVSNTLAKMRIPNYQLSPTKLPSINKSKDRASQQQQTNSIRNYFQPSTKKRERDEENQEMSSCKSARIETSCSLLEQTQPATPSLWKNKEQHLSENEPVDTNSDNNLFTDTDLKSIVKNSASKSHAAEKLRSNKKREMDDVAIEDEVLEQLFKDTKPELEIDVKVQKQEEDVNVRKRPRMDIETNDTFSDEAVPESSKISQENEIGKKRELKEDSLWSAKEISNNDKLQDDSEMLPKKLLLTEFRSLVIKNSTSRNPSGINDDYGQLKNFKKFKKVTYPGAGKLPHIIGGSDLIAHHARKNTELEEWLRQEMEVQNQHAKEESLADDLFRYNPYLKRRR
UniProt Q8N5M9: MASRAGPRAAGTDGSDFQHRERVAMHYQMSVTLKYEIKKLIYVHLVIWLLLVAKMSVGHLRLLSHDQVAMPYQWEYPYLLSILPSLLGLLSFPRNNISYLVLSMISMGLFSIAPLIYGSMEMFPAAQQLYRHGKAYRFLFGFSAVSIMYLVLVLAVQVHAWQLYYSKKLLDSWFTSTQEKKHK
UniProt P36542: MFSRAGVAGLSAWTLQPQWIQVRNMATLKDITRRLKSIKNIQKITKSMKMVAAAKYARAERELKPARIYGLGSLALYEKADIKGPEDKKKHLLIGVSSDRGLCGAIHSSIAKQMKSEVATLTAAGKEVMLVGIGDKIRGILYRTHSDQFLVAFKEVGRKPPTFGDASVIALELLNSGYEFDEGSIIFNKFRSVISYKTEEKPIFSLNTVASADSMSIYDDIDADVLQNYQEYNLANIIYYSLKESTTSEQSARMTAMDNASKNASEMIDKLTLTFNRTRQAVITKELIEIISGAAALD
UniProt Q9BYV8: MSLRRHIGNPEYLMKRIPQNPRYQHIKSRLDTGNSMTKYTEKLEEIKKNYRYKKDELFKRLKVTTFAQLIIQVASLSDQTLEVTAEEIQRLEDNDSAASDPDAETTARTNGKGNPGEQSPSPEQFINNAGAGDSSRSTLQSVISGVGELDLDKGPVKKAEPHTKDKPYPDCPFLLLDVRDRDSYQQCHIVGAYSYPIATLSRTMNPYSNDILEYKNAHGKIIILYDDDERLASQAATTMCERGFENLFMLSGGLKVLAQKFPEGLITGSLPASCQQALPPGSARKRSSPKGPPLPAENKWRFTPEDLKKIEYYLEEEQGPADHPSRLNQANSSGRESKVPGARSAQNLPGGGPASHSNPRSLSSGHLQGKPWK
UniProt Q96PC3: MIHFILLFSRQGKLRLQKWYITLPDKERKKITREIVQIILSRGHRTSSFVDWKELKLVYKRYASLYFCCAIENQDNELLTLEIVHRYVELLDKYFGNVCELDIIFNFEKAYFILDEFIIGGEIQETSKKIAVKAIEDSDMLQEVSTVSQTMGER
UniProt Q01469, whole entry: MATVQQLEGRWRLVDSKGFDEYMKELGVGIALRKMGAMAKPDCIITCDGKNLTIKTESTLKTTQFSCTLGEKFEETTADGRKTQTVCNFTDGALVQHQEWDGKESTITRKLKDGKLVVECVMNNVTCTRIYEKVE
UniProt Q8WUW1: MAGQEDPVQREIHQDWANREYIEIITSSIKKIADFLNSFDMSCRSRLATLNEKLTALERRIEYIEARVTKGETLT
UniProt Q53HV7: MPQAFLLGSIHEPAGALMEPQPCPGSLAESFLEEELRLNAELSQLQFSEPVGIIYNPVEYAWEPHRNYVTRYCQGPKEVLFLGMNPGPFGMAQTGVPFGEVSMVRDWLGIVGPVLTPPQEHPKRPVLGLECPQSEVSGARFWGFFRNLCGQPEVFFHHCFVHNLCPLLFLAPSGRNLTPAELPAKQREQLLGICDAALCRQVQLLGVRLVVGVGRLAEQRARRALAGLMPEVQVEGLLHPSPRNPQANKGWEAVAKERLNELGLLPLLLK
UniProt O14653: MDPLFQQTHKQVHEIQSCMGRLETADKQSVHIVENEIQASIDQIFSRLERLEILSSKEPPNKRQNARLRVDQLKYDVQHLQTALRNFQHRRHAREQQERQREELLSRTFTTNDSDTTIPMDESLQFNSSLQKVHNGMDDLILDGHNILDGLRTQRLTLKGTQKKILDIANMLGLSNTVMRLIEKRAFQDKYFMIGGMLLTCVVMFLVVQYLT
UniProt Q9P2K8: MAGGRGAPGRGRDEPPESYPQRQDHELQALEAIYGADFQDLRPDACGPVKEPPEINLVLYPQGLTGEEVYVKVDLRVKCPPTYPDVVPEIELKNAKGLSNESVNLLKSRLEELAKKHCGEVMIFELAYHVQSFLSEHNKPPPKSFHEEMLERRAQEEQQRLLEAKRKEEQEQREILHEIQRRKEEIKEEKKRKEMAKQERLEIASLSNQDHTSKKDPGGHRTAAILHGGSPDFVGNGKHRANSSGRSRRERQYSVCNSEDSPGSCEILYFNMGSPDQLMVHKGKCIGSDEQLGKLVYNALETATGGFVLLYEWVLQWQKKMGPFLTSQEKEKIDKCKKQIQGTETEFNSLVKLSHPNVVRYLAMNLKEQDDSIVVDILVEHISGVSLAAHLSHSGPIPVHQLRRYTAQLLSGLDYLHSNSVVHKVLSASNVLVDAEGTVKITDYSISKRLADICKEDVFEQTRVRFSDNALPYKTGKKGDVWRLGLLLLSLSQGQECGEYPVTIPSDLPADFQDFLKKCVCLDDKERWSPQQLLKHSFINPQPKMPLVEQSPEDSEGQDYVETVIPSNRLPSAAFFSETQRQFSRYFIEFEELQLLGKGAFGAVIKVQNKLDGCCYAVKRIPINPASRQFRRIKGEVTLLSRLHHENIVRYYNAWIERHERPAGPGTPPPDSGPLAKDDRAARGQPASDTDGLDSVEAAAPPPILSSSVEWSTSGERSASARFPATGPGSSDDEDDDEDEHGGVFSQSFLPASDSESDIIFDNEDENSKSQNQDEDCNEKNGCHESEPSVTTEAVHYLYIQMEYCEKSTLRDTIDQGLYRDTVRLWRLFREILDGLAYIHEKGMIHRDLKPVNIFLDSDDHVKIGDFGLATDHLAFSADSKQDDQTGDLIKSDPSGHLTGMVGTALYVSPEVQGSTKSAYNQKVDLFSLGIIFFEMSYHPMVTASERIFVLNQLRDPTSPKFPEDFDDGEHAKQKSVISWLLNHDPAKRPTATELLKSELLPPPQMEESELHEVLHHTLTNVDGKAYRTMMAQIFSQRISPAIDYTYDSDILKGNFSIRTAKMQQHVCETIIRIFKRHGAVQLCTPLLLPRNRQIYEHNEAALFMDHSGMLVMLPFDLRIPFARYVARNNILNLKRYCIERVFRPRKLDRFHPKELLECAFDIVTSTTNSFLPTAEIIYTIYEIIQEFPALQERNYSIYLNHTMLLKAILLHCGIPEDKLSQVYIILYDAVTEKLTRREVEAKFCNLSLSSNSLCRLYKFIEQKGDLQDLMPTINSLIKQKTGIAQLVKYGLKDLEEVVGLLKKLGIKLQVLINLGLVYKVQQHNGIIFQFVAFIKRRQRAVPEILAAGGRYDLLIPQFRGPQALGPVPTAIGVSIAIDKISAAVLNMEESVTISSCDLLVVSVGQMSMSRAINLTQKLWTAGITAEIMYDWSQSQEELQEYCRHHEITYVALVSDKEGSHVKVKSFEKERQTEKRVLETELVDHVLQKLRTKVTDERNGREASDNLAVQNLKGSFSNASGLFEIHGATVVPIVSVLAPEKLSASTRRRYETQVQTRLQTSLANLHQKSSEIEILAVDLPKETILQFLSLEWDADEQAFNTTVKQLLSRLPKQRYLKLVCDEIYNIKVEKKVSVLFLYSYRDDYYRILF
UniProt Q9NRP0: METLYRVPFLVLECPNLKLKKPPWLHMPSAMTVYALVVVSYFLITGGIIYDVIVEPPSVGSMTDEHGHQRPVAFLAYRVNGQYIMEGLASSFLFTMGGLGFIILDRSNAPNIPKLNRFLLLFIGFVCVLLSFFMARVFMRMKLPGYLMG
UniProt Q9UJY5: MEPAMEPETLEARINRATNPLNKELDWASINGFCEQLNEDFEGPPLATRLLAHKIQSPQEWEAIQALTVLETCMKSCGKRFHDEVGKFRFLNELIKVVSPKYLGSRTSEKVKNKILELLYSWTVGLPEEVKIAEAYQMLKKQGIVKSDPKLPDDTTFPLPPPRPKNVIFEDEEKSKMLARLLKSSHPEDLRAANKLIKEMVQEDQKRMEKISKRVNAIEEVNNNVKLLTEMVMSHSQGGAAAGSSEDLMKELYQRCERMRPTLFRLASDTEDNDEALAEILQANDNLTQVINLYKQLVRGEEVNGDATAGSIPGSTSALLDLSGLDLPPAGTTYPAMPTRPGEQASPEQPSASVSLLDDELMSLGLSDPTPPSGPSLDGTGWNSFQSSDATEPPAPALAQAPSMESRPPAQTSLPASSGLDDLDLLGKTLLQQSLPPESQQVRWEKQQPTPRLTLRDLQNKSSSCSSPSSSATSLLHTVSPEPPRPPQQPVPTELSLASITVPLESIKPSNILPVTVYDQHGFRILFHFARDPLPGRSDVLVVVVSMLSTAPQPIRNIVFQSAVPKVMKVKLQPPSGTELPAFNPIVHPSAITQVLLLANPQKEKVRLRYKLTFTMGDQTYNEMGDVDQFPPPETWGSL
UniProt Q12893: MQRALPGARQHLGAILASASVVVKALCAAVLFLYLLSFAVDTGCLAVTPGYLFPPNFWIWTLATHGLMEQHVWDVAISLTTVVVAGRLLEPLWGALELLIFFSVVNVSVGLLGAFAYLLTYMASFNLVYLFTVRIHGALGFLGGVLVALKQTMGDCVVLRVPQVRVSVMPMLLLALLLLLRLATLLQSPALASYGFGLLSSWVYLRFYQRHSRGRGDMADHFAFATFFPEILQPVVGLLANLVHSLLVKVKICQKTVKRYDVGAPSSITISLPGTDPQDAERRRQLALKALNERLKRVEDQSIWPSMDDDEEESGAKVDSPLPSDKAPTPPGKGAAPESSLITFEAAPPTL
UniProt A8MUU1, whole entry: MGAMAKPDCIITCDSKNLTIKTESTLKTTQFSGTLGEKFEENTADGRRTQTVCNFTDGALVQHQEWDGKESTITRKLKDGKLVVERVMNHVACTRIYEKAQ
UniProt P62258: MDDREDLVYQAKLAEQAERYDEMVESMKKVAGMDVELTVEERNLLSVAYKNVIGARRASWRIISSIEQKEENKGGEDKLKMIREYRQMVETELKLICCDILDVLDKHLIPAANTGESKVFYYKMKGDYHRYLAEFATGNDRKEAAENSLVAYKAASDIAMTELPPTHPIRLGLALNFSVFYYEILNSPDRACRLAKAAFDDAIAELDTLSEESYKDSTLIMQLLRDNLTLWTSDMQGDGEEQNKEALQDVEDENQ

Compound: [O-][N+](C(C1=C(C(O)=C2)NC(C(C=C3)=CC=C3Cl)C4C1C=CC4)=C2Cl)=O
Experiment: melting temperature shift (compound 7 minus DMSO); higher = compound stabilises the protein
Conditions: 10 µM
Description: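 Thermal proteome profiling (TMT mass spectrometry) in intact DAOY medulloblastoma cells or DAOY lysates treated with 10 µM compound 7 or DMSO, heated at 10 temperatures from 40.5 to 73.8 °C for 3 min. Melting curves were fitted with the Bioconductor TPP package, and the melting point difference between compound and vehicle is reported per protein (single curve per condition).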

[1] = system: DAOY cell lysate, treatment time: 20 min, 4 °C
[2] = system: intact DAOY cells, treatment time: 90 min, 37 °C

## SPG21 (UniProt Q9NZD8)
[1]
  melting temperature shift: -0.0497 °C
[2]
  melting temperature shift: 0.558 °C

## ANKRD13A (UniProt Q8IZ07)
[1]
  melting temperature shift: -0.188 °C
[2]
  melting temperature shift: 0.341 °C

## SDCBP (UniProt O00560)
[1]
  melting temperature shift: 0.0136 °C
[2]
  melting temperature shift: 0.532 °C

## UniProt Q6P179
[1]
  melting temperature shift: 0.767 °C
[2]
  melting temperature shift: -0.0719 °C

## MKRN2 (UniProt Q9H000)
[1]
  melting temperature shift: -0.473 °C
[2]
  melting temperature shift: 2.35 °C

## FNBP1 (UniProt Q96RU3)
[1]
  melting temperature shift: 1.86 °C

## AARSD1 (UniProt Q9BTE6)
[1]
  melting temperature shift: -0.316 °C
[2]
  melting temperature shift: 0.678 °C

## PSMG4 (UniProt Q5JS54)
[1]
  melting temperature shift: -2.56 °C
[2]
  melting temperature shift: -1.12 °C

## RP2 (UniProt O75695)
[1]
  melting temperature shift: 1.24 °C
[2]
  melting temperature shift: 0.184 °C

## FSCN1 (UniProt Q16658)
[1]
  melting temperature shift: -0.954 °C
[2]
  melting temperature shift: 0.335 °C

## ZYX (UniProt Q15942)
[1]
  melting temperature shift: -3.73 °C

## VARS (UniProt P26640)
[1]
  melting temperature shift: -0.494 °C
[2]
  melting temperature shift: -0.19 °C

## PDSS2 (UniProt Q86YH6)
[1]
  melting temperature shift: -0.329 °C
[2]
  melting temperature shift: -0.738 °C

## NBN (UniProt O60934)
[1]
  melting temperature shift: -1.73 °C
[2]
  melting temperature shift: -0.181 °C

## UniProt Q8IZD4
[1]
  melting temperature shift: -2.11 °C
[2]
  melting temperature shift: -1.17 °C

## UniProt P43366
[1]
  melting temperature shift: -0.136 °C
[2]
  melting temperature shift: 0.601 °C

## UniProt Q8N5M9
[1]
  melting temperature shift: 0.809 °C
[2]
  melting temperature shift: -4.38 °C

## CYP20A1 (UniProt Q6UW02)
[1]
  melting temperature shift: 0.376 °C
[2]
  melting temperature shift: -1.7 °C

## VTI1B (UniProt Q9UEU0)
[1]
  melting temperature shift: -0.968 °C

## PSMD5 (UniProt Q16401)
[2]
  melting temperature shift: -0.643 °C

## MICALL1 (UniProt Q8N3F8)
[1]
  melting temperature shift: -1.34 °C
[2]
  melting temperature shift: 0.964 °C

## ATP5C1 (UniProt P36542)
[1]
  melting temperature shift: 1.96 °C
[2]
  melting temperature shift: -1.67 °C

## UniProt O94832
[1]
  melting temperature shift: -0.453 °C
[2]
  melting temperature shift: 1.68 °C

## VPS26A (UniProt O75436)
[1]
  melting temperature shift: -0.711 °C
[2]
  melting temperature shift: 0.0509 °C

## MAPRE1 (UniProt Q15691)
[1]
  melting temperature shift: -0.266 °C
[2]
  melting temperature shift: -0.128 °C

## ELP2 (UniProt Q6IA86)
[1]
  melting temperature shift: -0.00374 °C
[2]
  melting temperature shift: -2.21 °C

## TUBB (UniProt P07437)
[1]
  melting temperature shift: -0.414 °C
[2]
  melting temperature shift: -0.516 °C

## LPP (UniProt Q93052)
[1]
  melting temperature shift: -0.116 °C
[2]
  melting temperature shift: 0.154 °C

## UniProt Q92484
[1]
  melting temperature shift: -0.157 °C

## UniProt Q8TDR4
[1]
  melting temperature shift: -0.195 °C

## WIPI2 (UniProt Q9Y4P8)
[1]
  melting temperature shift: -1.74 °C
[2]
  melting temperature shift: 0.489 °C

## CEP41 (UniProt Q9BYV8)
[1]
  melting temperature shift: -1.23 °C
[2]
  melting temperature shift: -0.624 °C

## PI4K2B (UniProt Q8TCG2)
[1]
  melting temperature shift: 0.242 °C

## UniProt Q96PC3
[2]
  melting temperature shift: -0.554 °C

## TUBA4A (UniProt P68366)
[1]
  melting temperature shift: 0.48 °C
[2]
  melting temperature shift: -0.166 °C

## UniProt P78559
[1]
  melting temperature shift: -0.00323 °C
[2]
  melting temperature shift: 0.266 °C

## UniProt Q01469
[1]
  melting temperature shift: 0.129 °C
[2]
  melting temperature shift: 0.149 °C

## UniProt Q9UGJ0
[1]
  melting temperature shift: -0.255 °C
[2]
  melting temperature shift: -1.18 °C

## UniProt Q8WUW1
[1]
  melting temperature shift: -0.878 °C
[2]
  melting temperature shift: 2.09 °C

## UniProt P78395
[1]
  melting temperature shift: 0.992 °C

## CPM (UniProt P14384)
[2]
  melting temperature shift: 1.13 °C

## GDI2 (UniProt P50395)
[1]
  melting temperature shift: -0.48 °C
[2]
  melting temperature shift: 0.375 °C

## SMU1 (UniProt Q2TAY7)
[1]
  melting temperature shift: 0.291 °C
[2]
  melting temperature shift: 0.39 °C

## UniProt Q53HV7
[1]
  melting temperature shift: -1.6 °C
[2]
  melting temperature shift: -0.0941 °C

## UniProt O14653
[1]
  melting temperature shift: -1.25 °C
[2]
  melting temperature shift: -0.628 °C

## TLN2 (UniProt Q9Y4G6)
[1]
  melting temperature shift: -0.418 °C
[2]
  melting temperature shift: -0.165 °C

## EIF2AK4 (UniProt Q9P2K8)
[1]
  melting temperature shift: 0.207 °C
[2]
  melting temperature shift: -0.297 °C

## GSDMD (UniProt P57764)
[1]
  melting temperature shift: -0.313 °C
[2]
  melting temperature shift: -1.68 °C

## UniProt Q9NRP0
[1]
  melting temperature shift: 2.51 °C
[2]
  melting temperature shift: -0.292 °C

## GGA1 (UniProt Q9UJY5)
[1]
  melting temperature shift: -0.851 °C
[2]
  melting temperature shift: 0.429 °C

## UniProt O75084
[2]
  melting temperature shift: -2.85 °C

## TMEM115 (UniProt Q12893)
[1]
  melting temperature shift: -0.453 °C
[2]
  melting temperature shift: -3.04 °C

## ACTR10 (UniProt Q9NZ32)
[1]
  melting temperature shift: -0.202 °C
[2]
  melting temperature shift: 0.267 °C

## UniProt A8MUU1
[2]
  melting temperature shift: -4.9 °C

## YWHAE (UniProt P62258)
[1]
  melting temperature shift: -1.07 °C
[2]
  melting temperature shift: -0.0113 °C
